Data: PubChem BioAssay (NCATS)
This list was built around the results that the source calls inconclusive (neither active nor inactive); the mix of calls is not that of the screen. For part of these data: A potency beside an inconclusive call is a rough fit, not a confirmed value. Activity calls are given as the source filed them. Calls follow the shape of the dose curve; as a rule, active = well fitted curve in the direction sought with a large enough effect; inconclusive = small, poorly fitted or top-dose-only effect, or another doubt; inactive = no such curve, though single readings can be large; an effect the other way counts as inactive or inconclusive.

Key:
[1] = qHTS of pediatric cancer cell lines to identify multiple opportunities for drug repurposing: Confirmatory screen for A673 cells (AID 1347110); details: A673 Ewing sarcoma cell viability; series mostly up to 45.9 µM;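 also: cells exposed to compound for 48 h before the viability read; nearly all actives have a fitted effect of over 65% in size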; also: potency is read from the fitted curve at half-maximal effect
Method in brief: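 A673 cells seeded at 500-1,000 cells/well, rested 5 h, then dosed; primary MIPE 11-point (0.78 nM to 46 µM), NPC (0.59 nM to 46 µM); confirmatory 11-point. CellTiter-Glo luminescence after 48 h.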

[2] = qHTS of pediatric cancer cell lines to identify multiple opportunities for drug repurposing: Confirmatory screen for SK-N-MC cells (AID 1347111); details: SK-N-MC cell viability; series mostly up to 45.9 µM;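 also: cells exposed to compound for 48 h before the readout; nearly all actives have a fitted effect of over 70% in size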; also: potency is read from the fitted curve at half-maximal effect
Method in brief: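 Metabolically active cells were quantified by ATP-dependent luminescence (CellTiter-Glo, 15 min at room temperature) following 48 h treatment. Cells had been plated at 500-1,000 per well and settled for 5 h beforehand.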

[3] = qHTS of pediatric cancer cell lines to identify multiple opportunities for drug repurposing: Confirmatory screen for LAN-5 cells (AID 1347113); details: LAN-5 neuroblastoma cell viability; activity change, negative = cytotoxicity: at 45.9 µM (top of the series); series mostly up to 45.9 µM; also: nearly all actives have a fitted effect of over 65% in size; also: potency is read from the fitted curve at half-maximal effect
Method in brief: (§1)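 Cells (500-1,000/well) in growth media were settled 5 h at 37 degrees C, then given compounds for 48 h. Viability was read as CellTiter-Glo luminescence. Primary runs used MIPE at 11 points (0.78 nM-46 µM) and NPC at 8 points (0.59 nM-46 µM); follow-ups used 11 points.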

[4] = qHTS of pediatric cancer cell lines to identify multiple opportunities for drug repurposing: Confirmatory screen for DAOY cells (AID 1347114); details: DAOY medulloblastoma cells viability, cytotoxicity qHTS; series mostly up to 45.9 µM; also: nearly all actives have a fitted effect of over 65% in size; also: potency is read from the fitted curve at half-maximal effect
Method in brief: (§2)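 Viability measured as metabolically active cells via CellTiter-Glo luminescence following 48 hours of compound exposure, 11-point dilutions in confirmatory testing. 500-1,000 cells/well plated 5 hours before dosing; controls were DMSO and 2.3 µM bortezomib.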

[5] = qHTS of pediatric cancer cell lines to identify multiple opportunities for drug repurposing: Confirmatory screen for NB-EBc1 cells (AID 1347115); details: NB-EBc1 neuroblastoma cells, viability (cytotoxicity); activity change, negative = cytotoxic: at 45.9 µM (top of the series);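 also: cells exposed to compound for 48 h before the viability read; nearly all actives have a fitted effect of over 45% in size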; also: potency is read from the fitted curve at half-maximal effect
Method in brief: as §1

[6] = qHTS of pediatric cancer cell lines to identify multiple opportunities for drug repurposing: Confirmatory screen for SJ-GBM2 cells (AID 1347116); details: SJ-GBM2 glioblastoma cells, viability; series mostly up to 45.9 µM; also: nearly all actives have a fitted effect of over 60% in size; also: potency is read from the fitted curve at half-maximal effect
Method in brief: as §2

[7] = qHTS of pediatric cancer cell lines to identify multiple opportunities for drug repurposing: Confirmatory screen for BT-37 cells (AID 1347117); details: BT-37 pediatric cancer cells, viability; series mostly up to 45.9 µM; also: nearly all actives have a fitted effect of over 55% in size
Method in brief: as §1

[8] = qHTS of pediatric cancer cell lines to identify multiple opportunities for drug repurposing: Confirmatory screen for TC32 cells (AID 1347118); details: TC32 Ewing sarcoma cells viability qHTS; series mostly up to 45.9 µM;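 also: potency is read from the fitted curve at half-maximal effect; cells exposed to compound for 48 h before the read; nearly all actives have a fitted effect of over 65% in size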
Method in brief: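 qHTS, TC32, 48 h drug treatment, CellTiter-Glo luminescence as a proxy for metabolically active cells; primary top concentration 46 µM (MIPE 11-pt, NPC 8-pt); confirmatory 11-pt.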

[9] = qHTS of pediatric cancer cell lines to identify multiple opportunities for drug repurposing: Confirmatory screen for MG 63 (6-TG R) cells (AID 1347119); details: MG-63 (6-TG resistant) osteosarcoma viability; activity change, negative = cytotoxicity: at 45.9 µM (top of the series); also: potency is read from the fitted curve at half-maximal effect; nearly all actives have a fitted effect of over 55% in size
Method in brief: as §1

[10] = qHTS of pediatric cancer cell lines to identify multiple opportunities for drug repurposing: Confirmatory screen for BT-12 cells (AID 1347112); details: BT-12 rhabdoid tumor cells, viability; series mostly up to 45.9 µM; also: nearly all actives have a fitted effect of over 55% in size
Method in brief: as §1

| Structure (SMILES) | Potency [1] | Potency [2] | Potency [3] | Potency [4] | Potency [5] | Potency [6] | Potency [7] | Potency [8] | Potency [9] | Potency [10] |
| --- | --- | --- | --- | --- | --- | --- | --- | --- | --- | --- |
| Nc1nc(N)nc(-c2cc(Cl)ccc2Cl)n1 | active: 26.9 µM | active: 1.17 µM | inconclusive: 36.9 µM [cytotoxic, single point] | inactive | inconclusive: 0.0029 µM [rising, full curve] | inconclusive: 0.024 µM [rising, full curve] | inactive | inconclusive: 0.827 µM [cytotoxic, full curve, poor fit] |  |  |
| CCCCn1c(=O)n(Cc2ccccc2F)c(=O)c2[nH]c(Cc3ccc(NC(C)=O)cc3)nc21 | inconclusive: 4.14 µM [cytotoxic, full curve] |  |  |  | inactive | active: 11.7 µM |  | inconclusive: 20.8 µM [cytotoxic, single point] |  |  |
| NCCCC(N)(C(=O)O)C(F)F (stereo not given) | inactive | inactive |  |  | inactive | inactive |  | inconclusive: 36.9 µM [cytotoxic, single point] |  |  |
| COC1CCC(C(=O)c2ccc3nc4c(cc3c2)CCCO4)CC1 (stereo not given) | inconclusive: 0.0928 µM [cytotoxic, full curve] |  |  |  | inactive | inactive | inactive | inconclusive: 7.37 µM [cytotoxic, full curve, poor fit] | inconclusive: 0.928 µM [rising, partial curve] |  |
| COc1ccc2c(c1OC)C(=O)OC2[C@H]1c2c(cc3c(c2OC)OCO3)CCN1C (stereo not given in full) | inconclusive: 32.9 µM [cytotoxic, single point] | inconclusive: 2.33 µM [cytotoxic, full curve, poor fit] | inactive | inconclusive: 20.8 µM [cytotoxic, partial curve] |  |  | inactive |  | inconclusive: 9.27 µM [cytotoxic, partial curve, poor fit] | inactive |
